Measurements reported in the supplement of paper PMC12889115.
This is one part of the list. Values are raw readings; no control value is given beside them.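 First-pass screen: polymyxin B was added at a level that permeabilizes the Salmonella outer membrane while sparing the inner membrane. DMSO wells, with and without polymyxin B, defined maximum growth. Because plates differed from one another, each plate's data were ranked separately and the compounds with the lowest OD600 were carried forward as hits.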

System: Salmonella enterica serovar Typhimurium SL1344
Assay: bacterial growth OD600 after 18 h with compound and polymyxin B; higher = more bacterial growth (less inhibition)
Conditions: 50 µM, Mueller-Hinton broth

SMILES | bacterial growth OD600 (polymyxin B 1 µg/mL) | bacterial growth OD600 (polymyxin B 0.75 µg/mL)
CCOCCCNC(=O)c1ccc(OC2CCN(C(C)=O)CC2)c(OC)c1 | 0.942 | –
CCOc1ccc(CN2CCCC(CO)(CCc3ccccc3)C2)cc1CO (stereo unspecified) | – | 0.796
CCCCN(C)Cc1cnc(S(=O)(=O)CC2CCCCC2)n1CCOC | 0.039 | –
CN(Cc1ccc(F)cc1)c1ccc(OCC(=O)N2CCN(c3nc4ccccc4s3)CC2)nn1 | – | 0.008
COCCN(C(=O)c1ccc(OC2CCN(S(C)(=O)=O)CC2)c(Cl)c1)C(C)C | 1.01 | –
Fc1cccc(C2CCCCN2Cc2nc(-c3ccccc3)no2)c1 (stereo unspecified) | 0.337 | –
O=C(Nc1ccnn1C1CCN(Cc2ccc(Cl)cc2)CC1)c1ccccc1 | 0.99 | –
O=C(c1cc(COc2ccc(-n3cncn3)cc2)on1)N1CCC(N2CCOCC2)CC1 | – | 0.817
CN(Cc1cccnc1)CC1(O)CCCN(Cc2cccc(F)c2F)C1=O (stereo unspecified) | 0.88 | –
Cc1ncsc1CCCNc1ccc(-c2nc(C3CC3)no2)cn1 | – | 0.335
COC(c1ccc2c(c1)CN(C(=O)c1scc3c1OCCO3)CCO2)C1CCCCC1 (stereo unspecified) | – | -0.002
O=C(CCC1CCN(CCCC(F)(F)F)CC1)Nc1ccccc1Cl | – | 0.869
COCC1CCCCN1Cc1c[nH]nc1-c1ccc2cc(OC)ccc2c1 (stereo unspecified) | 0.859 | –
COc1ccc2ccccc2c1CNCc1cccnc1N1CCCC(O)C1 (stereo unspecified) | 0.944 | –
CN(CCc1ccccn1)[C@@H]1CCN(CC(C)(C)CN2CCOCC2)C[C@H]1O | – | 0.872
C/C=C(\C)C(=O)N1CCC(C2(c3ccccn3)NC(=O)N(CCc3cccs3)C2=O)CC1 (stereo unspecified) | – | 0.884

SMILES | bacterial growth OD600 (polymyxin B 1 µg/mL) | bacterial growth OD600 (polymyxin B 0.75 µg/mL)
C=C(C)CN(CC)Cc1nc(-c2ccc(C(F)(F)F)cc2)oc1C | 0.611 | –
COc1ccc(C(CC(=O)N2CCCCCC2)c2ccccc2)cc1 (stereo unspecified) | 0.01 | –
Cn1cc(/C=C/C(=O)N2CCCC(C(=O)c3cccc(C(F)(F)F)c3)C2)cn1 (stereo unspecified) | 0.928 | –
CCN1CCCC1CNC(=O)c1cnn(-c2ncc3c(n2)-c2ccccc2CCC3)c1C1CC1 (stereo unspecified) | – | 0.825
Cc1cnc(SCCN2CCOCC2)nc1C1CCCN(C(=O)Cc2c[nH]c3ccccc23)C1 (stereo unspecified) | – | 0.756
CCOC(=O)N1CCN(c2nc3cc(OC)c(OC)cc3cc2CNCc2ccccc2C(F)(F)F)CC1 | – | 0.879
Cc1c(C(C)NC(=O)CN2CCC(c3ccccc3)CC2)cnn1-c1ccccn1 (stereo unspecified) | 0.842 | –
O=C(c1coc(COc2cccc(F)c2)n1)N1CCN(c2ccccn2)CC1 | 0.931 | –
O=C(NC(CCn1cncn1)c1ccccc1)c1ccc2nc(C3CC3)oc2c1 (stereo unspecified) | 0.957 | –
O=C(C1CCCC1)N1CCCC(N2CCN(c3cccc(C(F)(F)F)c3)CC2)C1 (stereo unspecified) | 0.719 | –
Cc1oc(-c2ccccc2NC(=O)c2ccccc2)nc1CNC(=O)c1cnn(Cc2ccccc2)c1 | – | 0.785
Cc1cccc(C(=O)N2CCCC(Nc3ccc(F)cc3)C2)c1 (stereo unspecified) | 1.03 | –
COc1cc(CN2CCOc3ccc(C(C)(O)COc4ccccc4)cc3C2)cc(OC)c1OC (stereo unspecified) | – | 0.002
COCCCn1c(CN2C[C@@H](C)O[C@@H](C)C2)cnc1S(=O)(=O)C1CCCC1 | – | 0.773
Cc1cccc2nc(CN(C)c3nncc(-c4ccc(Cl)cc4)n3)[nH]c12 | – | -0.003

Reprinted from the entries so far (2 entries):
SMILES | bacterial growth OD600 (polymyxin B 1 µg/mL) | bacterial growth OD600 (polymyxin B 0.75 µg/mL)
C=C(C)CN(CC)Cc1nc(-c2ccc(C(F)(F)F)cc2)oc1C | 0.611 | –
COc1ccc(C(CC(=O)N2CCCCCC2)c2ccccc2)cc1 (stereo unspecified) | 0.01 | –
